Data as given in paper PMC12579238.
These are yes or no findings as the source states them, for the method shown. In cells and extracts the contact can be indirect. A yes stands for co-enrichment or nearness to the bait. Other partners may have been found.

T1: CLN7 (human (endogenous in SH-SY5Y)) (UniProt Q8NHS3)
T1 sequence: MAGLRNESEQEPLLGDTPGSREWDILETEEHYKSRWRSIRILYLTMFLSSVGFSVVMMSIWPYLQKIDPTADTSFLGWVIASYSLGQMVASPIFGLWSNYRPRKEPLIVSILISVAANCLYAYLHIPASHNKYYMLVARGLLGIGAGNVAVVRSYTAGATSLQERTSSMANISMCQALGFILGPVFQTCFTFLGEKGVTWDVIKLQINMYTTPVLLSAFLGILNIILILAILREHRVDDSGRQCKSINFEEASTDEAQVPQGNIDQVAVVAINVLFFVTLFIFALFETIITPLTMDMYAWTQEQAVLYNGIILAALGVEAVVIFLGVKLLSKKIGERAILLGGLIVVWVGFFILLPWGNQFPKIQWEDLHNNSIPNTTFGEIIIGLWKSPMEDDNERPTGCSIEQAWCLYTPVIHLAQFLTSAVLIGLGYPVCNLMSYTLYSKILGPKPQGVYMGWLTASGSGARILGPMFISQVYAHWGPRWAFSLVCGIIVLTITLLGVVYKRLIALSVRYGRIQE


Biological target: T1, CLN7 (human (endogenous in SH-SY5Y))
Test: affinity purification with mass spectrometry; endogenous CLN7 immunoprecipitated from 2.5 mg SH-SY5Y lysate with a polyclonal anti-CLN7 antibody raised against L9 (351-421aa, Proteintech) on G-sepharose beads; IgG as non-specific binding control; 4 independent replicates; cells under steady state culture conditions

Row | binding | Binder
1 | binds | HAUS6 (protein, UniProt Q7Z4H7 1-955) MSSASVTAFEKEHLWMYLQALGFEPGPATIACGKIVSHTHLGVNMFDKLNRDAFHIISYFLFQVLDQSLTKEVFKFCWPPFDQKSDTEFRKHCCEWIKRISGECGSSFPQVVGSLFLSPGGPKFIHLMYHFARFVAMKYIKSNSKNSSHHFVETFNIKPQDLHKCIARCHFARSRFLQILQRQDCVTQKYQENAQLSVKQVRNLRSECIGLENQIKKMEPYDDHSNMEEKIQKVRSLWASVNETLMFLEKEREVVSSVLSLVNQYALDGTNVAINIPRLLLDKIEKQMFQLHIGNVYEAGKLNLLTVIQLLNEVLKVMKYERCQADQARLTVDLHYLEKETKFQKERLSDLKHMRYRIKDDLTTIRHSVVEKQGEWHKKWKEFLGLSPFSLIKGWTPSVDLLPPMSPLSFDPASEEVYAKSILCQYPASLPDAHKQHNQENGCRGDSDTLGALHDLANSPASFLSQSVSSSDRNSVTVLEKDTKMGTPKEKNEAISKKIPEFEVENSPLSDVAKNTESSAFGGSLPAKKSDPFQKEQDHLVEEVARAVLSDSPQLSEGKEIKLEELIDSLGSNPFLTRNQIPRTPENLITEIRSSWRKAIEMEENRTKEPIQMDAEHREVLPESLPVLHNQREFSMADFLLETTVSDFGQSHLTEEKVISDCECVPQKHVLTSHIDEPPTQNQSDLLNKKVICKQDLECLAFTKLSETSRMETFSPAVGNRIDVMGGSEEEFMKILDHLEVSCNKPSTNKTMLWNSFQISSGISSKSFKDNDFGILHETLPEEVGHLSFNSSSSSEANFKLEPNSPMHGGTLLEDVVGGRQTTPESDFNLQALRSRYEALKKSLSKKREESYLSNSQTPERHKPELSPTPQNVQTDDTLNFLDTCDLHTEHIKPSLRTSIGERKRSLSPLIKFSPVEQRLRTTIACSLGELPNLKEEDILNKSLDAKEPPSDLTR
2 | binds | HPS5 (protein, UniProt Q9UPZ3 1-1129) MAFVPVIPESYSHVLAEFESLDPLLSALRLDSSRLKCTSIAVSRKWLALGSSGGGLHLIQKEGWKHRLFLSHREGAISQVACCLHDDDYVAVATSQGLVVVWELNQERRGKPEQMYVSSEHKGRRVTALCWDTAILRVFVGDHAGKVSAIKLNTSKQAKAAAAFVMFPVQTITTVDSCVVQLDYLDGRLLISSLTRSFLCDTEREKFWKIGNKERDGEYGACFFPGRCSGGQQPLIYCARPGSRMWEVNFDGEVISTHQFKKLLSLPPLPVITLRSEPQYDHTAGSSQSLSFPKLLHLSEHCVLTWTERGIYIFIPQNVQVLLWSEVKDIQDVAVCRNELFCLHLNGKVSHLSLISVERCVERLLRRGLWNLAARTCCLFQNSVIASRARKTLTADKLEHLKSQLDHGTYNDLISQLEELILKFEPLDSACSSRRSSISSHESFSILDSGIYRIISSRRGSQSDEDSCSLHSQTLSEDERFKEFTSQQEEDLPDQCCGSHGNEDNVSHAPVMFETDKNETFLPFGIPLPFRSPSPLVSLQAVKESVSSFVRKTTEKIGTLHTSPDLKVRPELRGDEQSCEEDVSSDTCPKEEDTEEEKEVTSPPPEEDRFQELKVATAEAMTKLQDPLVLFESESLRMVLQEWLSHLEKTFAMKDFSGVSDTDNSSMKLNQDVLLVNESKKGILDEDNEKEKRDSLGNEESVDKTACECVRSPRESLDDLFQICSPCAIASGLRNDLAELTTLCLELNVLNSKIKSTSGHVDHTLQQYSPEILACQFLKKYFFLLNLKRAKESIKLSYSNSPSVWDTFIEGLKEMASSNPVYMEMEKGDLPTRLKLLDDEVPFDSPLLVVYATRLYEKFGESALRSLIKFFPSILPSDIIQLCHHHPAEFLAYLDSLVKSRPEDQRSSFLESLLQPESLRLDWLLLAVSLDAPPSTSTMDDEGYPRPHSHLLSWGYSQLILHLIKLPADFITKEKMTDICRSCGFWPGYLILCLELERRREAFTNIVYLNDMSLMEGDNGWIPETVEEWKLLLHLIQSKSTRPAPQESLNGSLSDGPSPINVENVALLLAKAMGPDRAWSLLQECGLALELSEKFTRTCDILRIAEKRQRALIQSMLEKCDRFLWSQQA
3 | binds | KIF7 (protein, UniProt Q2M1P5 1-1343) MGLEAQRLPGAEEAPVRVALRVRPLLPKELLHGHQSCLQVEPGLGRVTLGRDRHFGFHVVLAEDAGQEAVYQACVQPLLEAFFEGFNATVFAYGQTGSGKTYTMGEASVASLLEDEQGIVPRAMAEAFKLIDENDLLDCLVHVSYLEVYKEEFRDLLEVGTASRDIQLREDERGNVVLCGVKEVDVEGLDEVLSLLEMGNAARHTGATHLNHLSSRSHTVFTVTLEQRGRAPSRLPRPAPGQLLVSKFHFVDLAGSERVLKTGSTGERLKESIQINSSLLALGNVISALGDPQRRGSHIPYRDSKITRILKDSLGGNAKTVMIACVSPSSSDFDETLNTLNYASRAQNIRNRATVNWRPEAERPPEETASGARGPPRHRSETRIIHRGRRAPGPATASAAAAMRLGAECARYRACTDAAYSLLRELQAEPGLPGAAARKVRDWLCAVEGERSALSSASGPDSGIESASVEDQAAQGAGGRKEDEGAQQLLTLQNQVARLEEENRDFLAALEDAMEQYKLQSDRLREQQEEMVELRLRLELVRPGWGGPRLLNGLPPGSFVPRPHTAPLGGAHAHVLGMVPPACLPGDEVGSEQRGEQVTNGREAGAELLTEVNRLGSGSSAASEEEEEEEEPPRRTLHLRRNRISNCSQRAGARPGSLPERKGPELCLEELDAAIPGSRAVGGSKARVQARQVPPATASEWRLAQAQQKIRELAINIRMKEELIGELVRTGKAAQALNRQHSQRIRELEQEAEQVRAELSEGQRQLRELEGKELQDAGERSRLQEFRRRVAAAQSQVQVLKEKKQATERLVSLSAQSEKRLQELERNVQLMRQQQGQLQRRLREETEQKRRLEAEMSKRQHRVKELELKHEQQQKILKIKTEEIAAFQRKRRSGSNGSVVSLEQQQKIEEQKKWLDQEMEKVLQQRRALEELGEELHKREAILAKKEALMQEKTGLESKRLRSSQALNEDIVRVSSRLEHLEKELSEKSGQLRQGSAQSQQQIRGEIDSLRQEKDSLLKQRLEIDGKLRQGSLLSPEEERTLFQLDEAIEALDAAIEYKNEAITCRQRVLRASASLLSQCEMNLMAKLSYLSSSETRALLCKYFDKVVTLREEQHQQQIAFSELEMQLEEQQRLVYWLEVALERQRLEMDRQLTLQQKEHEQNMQLLLQQSRDHLGEGLADSRRQYEARIQALEKELGRYMWINQELKQKLGGVNAVGHSRGGEKRSLCSEGRQAPGNEDELHLAPELLWLSPLTEGAPRTREETRDLVHAPLPLTWKRSSLCGEEQGSPEELRQREAAEPLVGRVLPVGEAGLPWNFGPLSKPRRELRRASPGMIDVRKNPL
4 | binds | LRCH2 (protein, UniProt Q5VUJ6 1-765) MAASQGGGGNSGGGGCGGGGSSGGCGTAGGGGGGAGGGGGGGGGTLVVPIPVPTLFGQPFPNGPPWNPGSLQPQHTVRSLDRALEEAGSSGILSLSGRKLRDFPGSGYDLTDTTQADLSRNRFTEIPSDVWLFAPLETLNLYHNCIKTIPEAIKNLQMLTYLNISRNLLSTLPKYLFDLPLKVLVVSNNKLVSIPEEIGKLKDLMELDISCNEIQVLPQQMGKLHSLRELNIRRNNLHVLPDELGDLPLVKLDFSCNKVTEIPVCYRKLHHLQVIILDNNPLQVPPAQICLKGKVHIFKYLNIQACCRMDKKPDSLDLPSLSKRMPSQPLTDSMEDFYPNKNHGPDSGIGSDNGEKRLSTTEPSDDDTVSLHSQVSESNREQTSRNDSHIIGSKTDSQKDQEVYDFVDPNTEDVAVPEQGNAHIGSFVSFFKGKEKCSEKSRKNEELGDEKRLEKEQLLAEEEDDDLKEVTDLRKIAAQLLQQEQKNRILNHSTSVMRNKPKQTVECEKSVSADEVNSPLSPLTWQPLENQKDQIDEQPWPESHPIIWQSEERRRSKQIRKEYFKYKSMRKSSSGNENDEQDSDNANMSTQSPVSSEEYDRTDGFSHSPFGLKPRSAFSRSSRQEYGAADPGFTMRRKMEHLREEREQIRQLRNNLESRLKVILPDDIGAALMDGVVLCHLANHIRPRSVASIHVPSPAVPKLSMAKCRRNVENFLDACKKLGVSQERLCLPHHILEERGLVKVGVTVQALLELPTTKASQLSVA
5 | binds | HERC4 (protein, UniProt Q5GLZ8 1-1057) MLCWGNASFGQLGLGGIDEEIVLEPRKSDFFINKRVRDVGCGLRHTVFVLDDGTVYTCGCNDLGQLGHEKSRKKPEQVVALDAQNIVAVSCGEAHTLALNDKGQVYAWGLDSDGQLGLVGSEECIRVPRNIKSLSDIQIVQVACGYYHSLALSKASEVFCWGQNKYGQLGLGTDCKKQTSPQLLKSLLGIPFMQVAAGGAHSFVLTLSGAIFGWGRNKFGQLGLNDENDRYVPNLLKSLRSQKIVYICCGEDHTAALTKEGGVFTFGAGGYGQLGHNSTSHEINPRKVFELMGSIVTEIACGRQHTSAFVPSSGRIYSFGLGGNGQLGTGSTSNRKSPFTVKGNWYPYNGQCLPDIDSEEYFCVKRIFSGGDQSFSHYSSPQNCGPPDDFRCPNPTKQIWTVNEALIQKWLSYPSGRFPVEIANEIDGTFSSSGCLNGSFLAVSNDDHYRTGTRFSGVDMNAARLLFHKLIQPDHPQISQQVAASLEKNLIPKLTSSLPDVEALRFYLTLPECPLMSDSNNFTTIAIPFGTALVNLEKAPLKVLENWWSVLEPPLFLKIVELFKEVVVHLLKLYKIGIPPSERRIFNSFLHTALKVLEILHRVNEKMGQIIQYDKFYIHEVQELIDIRNDYINWVQQQAYGMDVNHGLTELADIPVTICTYPFVFDAQAKTTLLQTDAVLQMQMAIDQAHRQNVSSLFLPVIESVNPCLILVVRRENIVGDAMEVLRKTKNIDYKKPLKVIFVGEDAVDAGGVRKEFFLLIMRELLDPKYGMFRYYEDSRLIWFSDKTFEDSDLFHLIGVICGLAIYNCTIVDLHFPLALYKKLLKKKPSLDDLKELMPDVGRSMQQLLDYPEDDIEETFCLNFTITVENFGATEVKELVLNGADTAVNKQNRQEFVDAYVDYIFNKSVASLFDAFHAGFHKVCGGKVLLLFQPNELQAMVIGNTNYDWKELEKNTEYKGEYWAEHPTIKIFWEVFHELPLEKKKQFLLFLTGSDRIPILGMKSLKLVIQSTGGGEEYLPVSHTCFNLLDLPKYTEKETLRSKLIQAIDHNEGFSLI
